Source: patent publication US12685781B2 (DAIICHI SANKYO COMPANY, LIMITED, priority 2014, dated 2026)

Experiment: general procedure: solution-phase peptide synthesis; N-hydroxysuccinimide with EDC hydrochloride or N,N'-dicyclohexylcarbodiimide

Substance: N-(tert-butoxycarbonyl)glycylglycyl-L-phenylalanyl-N-(4-{[(1S,9S)-9-ethyl-5-fluoro-9-hydroxy-4-methyl-10,13-dioxo-2,3,9,10,13,15-hexahydro-1H,12H-benzo[de]pyrano[3′,4′:6,7]indolizino[1,2-b]quinolin-1-yl]amino}-4-oxobutyl)glycinamide
- conjugation yield (conjugation step): 73%

Substance: Glycylglycyl-L-phenylalanyl-N-(4-{[(1S,9S)-9-ethyl-5-fluoro-9-hydroxy-4-methyl-10,13-dioxo-2,3,9,10,13,15-hexahydro-1H,12H-benzo[de]pyrano[3′,4′:6,7]indolizino[1,2-b]quinolin-1-yl]amino}-4-oxobutyl)glycinamide trifluoroacetate
- step yield (late stage modification step, trifluoroacetate): 99%

Substance: tert-Butyl (3S,12S)-12-benzyl-21-{[(1S,9S)-9-ethyl-5-fluoro-9-hydroxy-4-methyl-10,13-dioxo-2,3,9,10,13,15-hexahydro-1H,12H-benzo[de]pyrano[3′,4′:6,7]indolizino[1,2-b]quinolin-1-yl]amino}-3-{[(9H-fluoren-9-ylmethoxy)carbonyl]amino}
- step yield (coupling step): 70%

Substance: tert-Butyl (5S,14S)-5-benzyl-1-{[(1S,9S)-9-ethyl-5-fluoro-9-hydroxy-4-methyl-10,13-dioxo-2,3,9,10,13,15-hexahydro-1H,12H-benzo[de]pyrano[3′,4′:6,7]indolizino[1,2-b]quinolin-1-yl]amino}-14-{[(9H-fluoren-9-ylmethoxy)carbonyl]amino}
- step yield (coupling step): 73%
